Patent US12350283B2, “Methods and compositions for treating motor neuron diseases” (UNIVERSITAT DE VALENCIA-ESTUDI GENERAL, priority 2019, dated 2025)
For some assays here: For at least one compound, name, drawing or mass did not settle the structure. Some of these results come from one statement about several compounds together.

Experiments:
SOD1-G93A mice = test: Survival of SOD1 G93A mice (Kaplan-Meier); type: in vivo, mouse; conditions: versus control untreated
Description: Mice hemizygous for SOD1-G93A (also called G93A-SOD1) transgene are viable and fertile, with transgenic expression of a G93A mutant form of human SOD1. This founder line (often referred to as G1H) is reported to have a high transgene copy number. […] Motor neuron degeneration has been associated with function and/or degeneration of astrocytes, the major glial cell type of the nervous system. Transgenic mice have an abbreviated life span: 50% survive at 157.1+/−9.3 days (in contrast to the mixed B6SJL background where 50% survival is observed at 128.9+/−9.1 days). Female hemizygotes are poor breeders, and rarely produce more than one litter before the onset of disease. […] The pattern of gene expression in SOD1G93A activated microglia represents a unique ALS-specific signature. These SOD1-G93A (also called G93A-SOD1) transgenic mice us thus useful in studying neuromuscular disorders, including Amyotrophic Lateral Sclerosis.
The SOD1-G93A transgene was designed with a mutant human SOD1 gene (harboring a single amino acid substitution of glycine to alanine at codon 93) driven by its endogenous human SOD1 promoter. This transgene was injected into fertilized B6SJLF1 mouse eggs and founder animals were obtained. Transgenic mice on a mixed B6SJL genetic background were sent to The Jackson Laboratory (as Stock No. 002726). […]

FUS-R521C mice = test: Survival of FUS-R521C mice; type: in vivo, mouse; conditions: FIGS. 3A-3C, end of study 45 weeks
Method: FUS-R521C mice (ALS model; transgene injected into B6SJL oocytes. Maintained on C57BL/6, therefore subsequent generations have a higher percentage of C57BL/6) were selected for methods examining the effects of the addition of acetylcysteine.
Acetylcysteine (NAC) was administered intraperitoneally (IP): 100 mg/kg per day, beginning on week 30, in experiments examining the effect of the addition of NAC.

Row | Structure (SMILES) | survival (in words) (SOD1-G93A mice) | survival (FUS-R521C mice)
1 | C[C@@H]1C[C@H]2[C@@H]3CCC4=CC(=O)C=C[C@]4(C)[C@@]3(F)[C@@H](O)C[C@]2(C)[C@@]1(O)C(=O)CO [DXM, Dexamethasone] | some improvement | –
2 | COc1cc(/C=C/c2ccc(O)cc2)cc(OC)c1 [PT, Pterostilbene] | – | 28-32 weeks
